Source: patent US20240299493A1 (ACCELERON PHARMA, published 2024)
These are yes or no findings as the source states them, for the method shown. Some binding calls cover weakened binding; strength is not graded here.

By UniProt entry, the sequences of proteins in these tests, tags left out. Where a name states a change or a piece, a line headed by the entry shows the natural chain unless it says otherwise. Residues count along the entry.
UniProt P22004, residues 382-513: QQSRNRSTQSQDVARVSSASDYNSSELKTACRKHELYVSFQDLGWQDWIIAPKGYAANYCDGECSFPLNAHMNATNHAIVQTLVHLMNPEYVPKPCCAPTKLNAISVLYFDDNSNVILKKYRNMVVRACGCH
UniProt P27037: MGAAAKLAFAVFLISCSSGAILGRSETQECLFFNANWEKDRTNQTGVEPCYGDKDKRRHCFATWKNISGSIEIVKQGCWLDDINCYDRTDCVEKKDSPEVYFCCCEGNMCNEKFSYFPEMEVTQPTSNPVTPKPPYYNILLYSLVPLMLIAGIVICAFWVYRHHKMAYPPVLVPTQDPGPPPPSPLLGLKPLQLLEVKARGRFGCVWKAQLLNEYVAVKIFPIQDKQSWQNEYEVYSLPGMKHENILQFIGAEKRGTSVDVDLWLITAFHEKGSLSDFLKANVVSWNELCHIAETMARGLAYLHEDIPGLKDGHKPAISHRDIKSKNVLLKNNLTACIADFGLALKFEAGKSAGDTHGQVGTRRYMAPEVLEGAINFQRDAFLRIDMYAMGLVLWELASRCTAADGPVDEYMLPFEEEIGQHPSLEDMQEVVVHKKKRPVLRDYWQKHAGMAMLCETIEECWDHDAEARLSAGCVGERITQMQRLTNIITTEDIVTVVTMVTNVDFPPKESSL

Target: BMP6 (UniProt P22004)
Assay: similar Biacore binding assay

binding: binds
Substance: ActRIIA-mFc (from UniProt P27037 21-135) (Fc fusion)
